Publication PMC6042370
Results are given in words; binding and its absence hold for the method and conditions named. In cells and extracts the contact can be indirect. A result given as binding can be weak or reduced; the word gives no strength. Tags and fused reporters may be left off the sequences shown.

Biological target: T1, FLAG-ATF2 (ATF2-WT) (human (cDNA from a 293T library)) (UniProt P15336)
T1 sequence: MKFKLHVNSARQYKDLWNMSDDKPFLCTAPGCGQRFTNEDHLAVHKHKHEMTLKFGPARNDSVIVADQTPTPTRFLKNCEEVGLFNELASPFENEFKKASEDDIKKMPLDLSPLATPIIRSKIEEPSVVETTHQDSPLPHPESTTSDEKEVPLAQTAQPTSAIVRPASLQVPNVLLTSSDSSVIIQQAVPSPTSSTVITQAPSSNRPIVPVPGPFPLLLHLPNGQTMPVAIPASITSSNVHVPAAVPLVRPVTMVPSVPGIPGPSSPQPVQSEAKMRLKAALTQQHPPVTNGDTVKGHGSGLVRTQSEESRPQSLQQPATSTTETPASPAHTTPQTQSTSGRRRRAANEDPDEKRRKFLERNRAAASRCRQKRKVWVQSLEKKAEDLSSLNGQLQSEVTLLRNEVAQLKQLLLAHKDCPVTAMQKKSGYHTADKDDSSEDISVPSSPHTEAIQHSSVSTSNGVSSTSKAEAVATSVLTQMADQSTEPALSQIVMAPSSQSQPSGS
Experiment: co-IP; 293T cells co-transfected, lysed 24 h later in BC100 buffer; anti-FLAG M2 agarose overnight, elution with FLAG peptide, Western blot

- binding: binds
Substance: SPOP-ΔBTB (domain or fragment)
